Test results taken from ChEMBL document CHEMBL1909046, “DrugMatrix in vitro pharmacology data”.

The chains behind the UniProt entries cited, without tags or fusion partners. Where a name states a change or a piece, a line headed by the entry shows the natural chain unless it says otherwise.
UniProt P22771: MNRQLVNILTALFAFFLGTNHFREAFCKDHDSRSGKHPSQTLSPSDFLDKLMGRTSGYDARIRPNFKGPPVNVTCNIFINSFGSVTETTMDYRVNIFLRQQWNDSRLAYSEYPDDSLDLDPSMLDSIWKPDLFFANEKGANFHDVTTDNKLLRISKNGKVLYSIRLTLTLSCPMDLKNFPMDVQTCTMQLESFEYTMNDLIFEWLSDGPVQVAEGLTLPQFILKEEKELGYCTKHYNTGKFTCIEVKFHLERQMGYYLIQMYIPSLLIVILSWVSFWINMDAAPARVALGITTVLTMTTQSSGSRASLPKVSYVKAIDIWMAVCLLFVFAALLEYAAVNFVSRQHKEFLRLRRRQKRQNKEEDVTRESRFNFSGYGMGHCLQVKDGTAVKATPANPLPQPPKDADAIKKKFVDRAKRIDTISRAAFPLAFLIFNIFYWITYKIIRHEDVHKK
UniProt P25101, whole entry: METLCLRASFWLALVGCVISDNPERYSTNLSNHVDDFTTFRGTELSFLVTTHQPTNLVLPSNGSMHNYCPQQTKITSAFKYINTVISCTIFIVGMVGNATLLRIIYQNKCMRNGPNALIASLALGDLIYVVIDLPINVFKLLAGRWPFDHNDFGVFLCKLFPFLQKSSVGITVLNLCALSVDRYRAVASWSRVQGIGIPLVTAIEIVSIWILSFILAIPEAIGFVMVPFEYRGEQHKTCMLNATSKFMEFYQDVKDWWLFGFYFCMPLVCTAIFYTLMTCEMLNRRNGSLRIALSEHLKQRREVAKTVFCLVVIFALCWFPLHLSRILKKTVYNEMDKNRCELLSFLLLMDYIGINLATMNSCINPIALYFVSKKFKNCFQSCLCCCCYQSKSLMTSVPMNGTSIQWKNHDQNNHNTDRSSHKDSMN
UniProt P43140: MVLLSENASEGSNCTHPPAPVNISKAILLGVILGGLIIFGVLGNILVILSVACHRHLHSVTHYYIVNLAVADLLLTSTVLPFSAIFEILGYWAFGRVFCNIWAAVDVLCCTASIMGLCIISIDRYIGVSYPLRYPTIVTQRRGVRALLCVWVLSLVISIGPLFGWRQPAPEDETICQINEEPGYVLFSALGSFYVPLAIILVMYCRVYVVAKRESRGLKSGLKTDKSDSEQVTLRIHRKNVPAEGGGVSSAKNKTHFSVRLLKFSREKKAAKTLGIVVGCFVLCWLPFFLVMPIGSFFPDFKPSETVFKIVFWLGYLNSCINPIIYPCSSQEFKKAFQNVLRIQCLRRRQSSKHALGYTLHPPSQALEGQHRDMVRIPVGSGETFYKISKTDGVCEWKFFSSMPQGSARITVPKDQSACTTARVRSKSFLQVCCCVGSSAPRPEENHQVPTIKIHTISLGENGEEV
UniProt P30542, whole entry: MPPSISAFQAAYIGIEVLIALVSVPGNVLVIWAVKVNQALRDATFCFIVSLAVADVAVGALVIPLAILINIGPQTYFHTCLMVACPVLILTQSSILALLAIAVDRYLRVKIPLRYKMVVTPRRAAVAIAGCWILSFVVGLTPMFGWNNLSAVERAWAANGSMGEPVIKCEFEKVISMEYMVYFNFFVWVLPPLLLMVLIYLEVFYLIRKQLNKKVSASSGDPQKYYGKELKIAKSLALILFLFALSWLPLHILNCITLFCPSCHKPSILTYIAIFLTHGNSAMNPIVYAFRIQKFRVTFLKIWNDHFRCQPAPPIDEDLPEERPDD
UniProt Q16539, whole entry: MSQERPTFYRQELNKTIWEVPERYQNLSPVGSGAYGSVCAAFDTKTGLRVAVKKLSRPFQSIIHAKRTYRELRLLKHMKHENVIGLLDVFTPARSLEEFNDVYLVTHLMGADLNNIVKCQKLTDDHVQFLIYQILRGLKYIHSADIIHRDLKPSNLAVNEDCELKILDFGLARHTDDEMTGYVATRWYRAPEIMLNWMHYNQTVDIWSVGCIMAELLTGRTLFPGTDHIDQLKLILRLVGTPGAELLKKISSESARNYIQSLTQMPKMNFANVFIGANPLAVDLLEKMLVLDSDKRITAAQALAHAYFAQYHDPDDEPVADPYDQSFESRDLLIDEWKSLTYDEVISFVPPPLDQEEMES
UniProt P06241, whole entry: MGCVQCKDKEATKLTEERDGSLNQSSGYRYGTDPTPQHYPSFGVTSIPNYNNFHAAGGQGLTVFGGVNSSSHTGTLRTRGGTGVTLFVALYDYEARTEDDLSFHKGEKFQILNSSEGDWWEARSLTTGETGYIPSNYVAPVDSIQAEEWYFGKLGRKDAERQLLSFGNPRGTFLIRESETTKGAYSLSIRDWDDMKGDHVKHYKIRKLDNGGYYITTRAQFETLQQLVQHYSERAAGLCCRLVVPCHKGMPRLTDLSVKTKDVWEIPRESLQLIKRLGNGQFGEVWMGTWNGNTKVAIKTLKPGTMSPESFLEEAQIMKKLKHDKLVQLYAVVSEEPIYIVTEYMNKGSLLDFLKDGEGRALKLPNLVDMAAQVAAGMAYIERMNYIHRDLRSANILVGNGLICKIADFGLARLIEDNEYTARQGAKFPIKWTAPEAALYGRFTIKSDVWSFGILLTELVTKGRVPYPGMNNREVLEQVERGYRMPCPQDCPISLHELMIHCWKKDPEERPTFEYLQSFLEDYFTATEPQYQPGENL
UniProt P35372, whole entry: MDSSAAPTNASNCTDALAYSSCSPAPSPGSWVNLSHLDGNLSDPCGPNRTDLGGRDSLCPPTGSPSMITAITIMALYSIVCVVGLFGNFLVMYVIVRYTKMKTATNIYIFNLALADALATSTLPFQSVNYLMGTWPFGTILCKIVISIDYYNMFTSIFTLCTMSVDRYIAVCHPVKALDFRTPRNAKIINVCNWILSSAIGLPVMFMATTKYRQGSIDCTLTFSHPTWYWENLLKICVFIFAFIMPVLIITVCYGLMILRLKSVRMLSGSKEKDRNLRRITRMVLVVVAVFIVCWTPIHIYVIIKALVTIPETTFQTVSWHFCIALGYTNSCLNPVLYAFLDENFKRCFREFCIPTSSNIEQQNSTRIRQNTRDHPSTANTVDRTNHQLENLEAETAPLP
UniProt P29476, whole entry: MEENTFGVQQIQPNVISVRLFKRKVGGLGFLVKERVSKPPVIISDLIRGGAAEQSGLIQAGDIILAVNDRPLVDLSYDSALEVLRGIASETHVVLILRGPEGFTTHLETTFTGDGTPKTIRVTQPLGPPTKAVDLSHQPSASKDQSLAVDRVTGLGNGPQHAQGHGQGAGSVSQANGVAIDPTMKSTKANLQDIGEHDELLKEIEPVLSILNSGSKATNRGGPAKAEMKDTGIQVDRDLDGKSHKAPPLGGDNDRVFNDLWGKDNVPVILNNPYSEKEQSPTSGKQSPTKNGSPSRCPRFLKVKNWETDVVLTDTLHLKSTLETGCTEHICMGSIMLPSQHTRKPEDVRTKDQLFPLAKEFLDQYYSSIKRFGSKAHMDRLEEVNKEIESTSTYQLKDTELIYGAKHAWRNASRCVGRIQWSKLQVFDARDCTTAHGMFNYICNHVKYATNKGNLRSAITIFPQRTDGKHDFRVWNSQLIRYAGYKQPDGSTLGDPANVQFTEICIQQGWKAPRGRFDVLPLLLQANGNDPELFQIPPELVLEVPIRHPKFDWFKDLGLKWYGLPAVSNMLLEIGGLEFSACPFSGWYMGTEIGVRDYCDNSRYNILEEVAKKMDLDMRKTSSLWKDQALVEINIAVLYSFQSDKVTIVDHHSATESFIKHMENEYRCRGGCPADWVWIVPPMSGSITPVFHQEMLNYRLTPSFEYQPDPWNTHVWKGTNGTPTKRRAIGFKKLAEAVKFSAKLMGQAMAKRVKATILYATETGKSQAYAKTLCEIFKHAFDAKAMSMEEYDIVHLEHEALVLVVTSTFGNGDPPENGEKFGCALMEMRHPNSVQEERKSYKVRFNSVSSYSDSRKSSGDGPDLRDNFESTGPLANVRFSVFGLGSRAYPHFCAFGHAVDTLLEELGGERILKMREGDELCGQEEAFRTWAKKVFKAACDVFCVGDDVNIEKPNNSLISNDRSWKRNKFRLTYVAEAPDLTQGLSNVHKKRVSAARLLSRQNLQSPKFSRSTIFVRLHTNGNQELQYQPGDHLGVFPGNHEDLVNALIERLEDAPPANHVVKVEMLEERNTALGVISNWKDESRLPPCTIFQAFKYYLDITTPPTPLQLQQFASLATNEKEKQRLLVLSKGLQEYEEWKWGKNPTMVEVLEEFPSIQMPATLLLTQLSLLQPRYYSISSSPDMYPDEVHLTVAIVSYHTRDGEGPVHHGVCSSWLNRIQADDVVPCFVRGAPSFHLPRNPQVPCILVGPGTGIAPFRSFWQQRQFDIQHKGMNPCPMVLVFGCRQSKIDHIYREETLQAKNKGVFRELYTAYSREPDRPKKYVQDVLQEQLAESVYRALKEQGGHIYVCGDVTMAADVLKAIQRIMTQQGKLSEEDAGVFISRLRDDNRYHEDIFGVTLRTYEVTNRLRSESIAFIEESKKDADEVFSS
UniProt P25024, whole entry: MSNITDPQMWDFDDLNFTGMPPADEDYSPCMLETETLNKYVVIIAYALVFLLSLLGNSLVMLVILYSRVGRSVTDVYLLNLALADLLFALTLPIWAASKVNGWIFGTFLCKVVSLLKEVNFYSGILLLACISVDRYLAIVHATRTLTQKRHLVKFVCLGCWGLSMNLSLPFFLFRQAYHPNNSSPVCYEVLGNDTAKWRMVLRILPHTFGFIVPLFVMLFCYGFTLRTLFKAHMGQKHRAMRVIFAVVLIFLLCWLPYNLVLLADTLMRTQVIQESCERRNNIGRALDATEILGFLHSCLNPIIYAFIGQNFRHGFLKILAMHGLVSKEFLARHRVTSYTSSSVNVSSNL
UniProt P51681, whole entry: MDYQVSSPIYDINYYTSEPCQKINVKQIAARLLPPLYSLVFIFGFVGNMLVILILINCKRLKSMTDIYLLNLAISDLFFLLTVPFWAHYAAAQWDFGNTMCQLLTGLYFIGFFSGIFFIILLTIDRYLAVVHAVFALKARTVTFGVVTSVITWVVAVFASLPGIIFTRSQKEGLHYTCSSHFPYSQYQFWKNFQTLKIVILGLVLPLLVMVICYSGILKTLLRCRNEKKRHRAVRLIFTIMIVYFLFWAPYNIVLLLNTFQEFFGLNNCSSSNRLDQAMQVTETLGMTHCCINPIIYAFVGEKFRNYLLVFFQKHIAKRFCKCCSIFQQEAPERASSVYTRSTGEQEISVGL
UniProt P25105: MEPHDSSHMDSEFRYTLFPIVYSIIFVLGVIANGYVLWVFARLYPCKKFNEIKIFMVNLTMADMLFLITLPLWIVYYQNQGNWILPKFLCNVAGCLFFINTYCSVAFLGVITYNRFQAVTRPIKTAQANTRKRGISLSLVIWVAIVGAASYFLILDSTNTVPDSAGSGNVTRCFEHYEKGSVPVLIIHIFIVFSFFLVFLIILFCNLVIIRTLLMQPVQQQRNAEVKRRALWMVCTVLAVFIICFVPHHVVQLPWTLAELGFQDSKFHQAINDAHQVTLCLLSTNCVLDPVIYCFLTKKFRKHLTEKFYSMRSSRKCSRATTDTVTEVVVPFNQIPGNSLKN
UniProt P08246: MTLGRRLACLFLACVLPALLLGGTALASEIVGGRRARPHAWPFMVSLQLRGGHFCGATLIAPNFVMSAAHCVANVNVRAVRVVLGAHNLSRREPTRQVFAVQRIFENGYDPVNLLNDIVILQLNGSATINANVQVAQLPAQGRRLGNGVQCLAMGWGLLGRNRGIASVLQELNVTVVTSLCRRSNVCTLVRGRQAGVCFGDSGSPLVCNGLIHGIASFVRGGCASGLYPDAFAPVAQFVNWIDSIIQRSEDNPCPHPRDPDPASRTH
UniProt P33032: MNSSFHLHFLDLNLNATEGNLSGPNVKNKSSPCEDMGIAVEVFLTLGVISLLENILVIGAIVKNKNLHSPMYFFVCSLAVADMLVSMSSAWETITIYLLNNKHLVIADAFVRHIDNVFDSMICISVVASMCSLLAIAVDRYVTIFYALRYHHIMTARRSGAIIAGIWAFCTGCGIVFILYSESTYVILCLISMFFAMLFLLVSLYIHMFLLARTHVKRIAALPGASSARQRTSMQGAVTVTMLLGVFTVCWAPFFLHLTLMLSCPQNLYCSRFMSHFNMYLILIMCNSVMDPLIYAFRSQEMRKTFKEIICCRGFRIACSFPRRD
UniProt O70528: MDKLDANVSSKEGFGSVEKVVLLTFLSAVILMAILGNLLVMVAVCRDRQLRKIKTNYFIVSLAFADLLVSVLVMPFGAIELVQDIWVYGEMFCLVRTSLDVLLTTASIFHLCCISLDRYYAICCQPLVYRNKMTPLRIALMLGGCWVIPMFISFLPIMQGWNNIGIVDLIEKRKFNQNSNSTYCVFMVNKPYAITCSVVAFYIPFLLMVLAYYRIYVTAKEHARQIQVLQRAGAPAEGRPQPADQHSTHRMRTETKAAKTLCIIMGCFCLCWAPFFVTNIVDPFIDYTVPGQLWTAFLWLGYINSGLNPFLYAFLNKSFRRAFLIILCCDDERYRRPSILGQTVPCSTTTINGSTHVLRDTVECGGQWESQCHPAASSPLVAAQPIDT
UniProt A6XA80: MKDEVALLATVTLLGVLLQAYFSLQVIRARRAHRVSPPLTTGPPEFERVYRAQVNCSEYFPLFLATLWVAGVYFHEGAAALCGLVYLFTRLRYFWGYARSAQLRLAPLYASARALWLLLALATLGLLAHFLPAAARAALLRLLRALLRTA

Columns and labels:
B2 bradykinin receptor = B2 bradykinin receptor (Homo sapiens, UniProt P30411); format: cell membranes, Membrane; settings: chem-1; further: in other assays of this panel Not Active means under 50% inhibition at 10 µM
Glycine receptor = Glycine receptor (Rattus norvegicus, UniProt P22771+P24524+P07727+P20781); format: cell membranes, Wistar, Spinal cord, Membrane; further: in other assays of this panel Not Active means under 50% inhibition at 10 µM
Substance-P receptor = Substance-P receptor (Homo sapiens, UniProt P25103); format: cell membranes, Membrane; settings: cho; further: in other assays of this panel Not Active means under 50% inhibition at 10 µM
[1] = target: Delta-type opioid receptor (Homo sapiens, UniProt P41143); format: cell membranes, Membrane; settings: hek293; further: in other assays of this panel Not Active means under 50% inhibition at 10 µM
Endothelin-1 receptor = Endothelin-1 receptor (Homo sapiens, UniProt P25101); format: cell membranes, Membrane; settings: cho-k1; further: in other assays of this panel Not Active means under 50% inhibition at 10 µM
Calcitonin receptor = Calcitonin receptor (Homo sapiens, UniProt P30988); format: cell membranes, Membrane; settings: t47d; further: in other assays of this panel Not Active means under 50% inhibition at 10 µM
[2] = target: Alpha-1A adrenergic receptor (Rattus norvegicus, UniProt P43140); assay: DRUGMATRIX: Alpha-1A adrenergic receptor radioligand binding (ligand: prazosin); format: cell membranes, Wistar, Submaxillary gland, Membrane; settings: Not Active = under 50% inhibition at 10 µM
[3] = target: Cysteinyl leukotriene receptor 1 (Homo sapiens, UniProt Q9Y271); format: cell membranes, Membrane; settings: cho-k1; further: in other assays of this panel Not Active means under 50% inhibition at 10 µM
Adenosine receptor A1 = Adenosine receptor A1 (Homo sapiens, UniProt P30542); format: cell membranes, Membrane; settings: cho
[4] = target: Mitogen-activated protein kinase 14 (Homo sapiens, UniProt Q16539); design: species or system Escherichia coli
[5] = target: Tyrosine-protein kinase Fyn (Homo sapiens, UniProt P06241); assay: biochemical; format: cell-based, Insect cells
[6] = target: Mitogen-activated protein kinase 1 (Homo sapiens, UniProt P28482); assay: DRUGMATRIX: Protein Serine/Threonine Kinase, ERK2 enzyme inhibition (substrate: Myelin Basic Protein); design: species or system Escherichia coli; settings: Not Active = under 50% inhibition at 10 µM
Thromboxane-A synthase = Thromboxane-A synthase (Homo sapiens, UniProt P24557); format: tissue-based; settings: platelet
[7] = target: C-C chemokine receptor type 4 (Homo sapiens, UniProt P51679); format: cell membranes, Membrane; settings: chem-1; further: in other assays of this panel Not Active means under 50% inhibition at 10 µM
Cathepsin G = Cathepsin G (Homo sapiens, UniProt P08311); format: tissue-based; settings: neutrophil
Mu-type opioid receptor = Mu-type opioid receptor (Homo sapiens, UniProt P35372); assay: DRUGMATRIX: Opiate mu (OP3, MOP) radioligand binding (ligand: [3H] Diprenorphine); format: cell membranes, Membrane; settings: cho-k1; Not Active = under 50% inhibition at 10 µM
Interstitial collagenase = Interstitial collagenase (Homo sapiens, UniProt P03956); format: tissue-based, Rheumatoid synovial fibroblasts
[8] = target: Receptor-type tyrosine-protein phosphatase C (Homo sapiens, UniProt P08575); design: species or system Escherichia coli
[9] = target: 5-hydroxytryptamine receptor 6 (Homo sapiens, UniProt P50406); format: cell membranes, Membrane; settings: hela; further: in other assays of this panel Not Active means under 50% inhibition at 10 µM
[10] = target: T1, Alpha-1B adrenergic receptor (Rattus norvegicus, UniProt P15823); assay: DRUGMATRIX: Alpha-1B adrenergic receptor radioligand binding (ligand: prazosin); format: cell membranes, Wistar, Liver, Membrane; settings: Not Active = under 50% inhibition at 10 µM
T1 sequence (P15823 whole entry): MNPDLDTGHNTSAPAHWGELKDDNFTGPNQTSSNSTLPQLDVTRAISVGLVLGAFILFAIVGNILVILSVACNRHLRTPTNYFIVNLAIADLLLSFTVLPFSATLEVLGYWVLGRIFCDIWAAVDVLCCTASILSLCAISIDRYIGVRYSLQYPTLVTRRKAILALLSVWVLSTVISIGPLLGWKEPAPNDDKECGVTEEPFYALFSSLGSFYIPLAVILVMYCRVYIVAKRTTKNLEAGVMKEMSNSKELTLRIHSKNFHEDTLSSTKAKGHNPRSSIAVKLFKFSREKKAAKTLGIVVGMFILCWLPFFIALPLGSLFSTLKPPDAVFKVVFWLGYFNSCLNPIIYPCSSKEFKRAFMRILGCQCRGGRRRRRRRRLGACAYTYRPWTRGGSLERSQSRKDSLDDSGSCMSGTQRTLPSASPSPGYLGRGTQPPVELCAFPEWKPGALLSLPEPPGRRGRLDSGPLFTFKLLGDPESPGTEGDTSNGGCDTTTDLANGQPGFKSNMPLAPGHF

Nitric oxide synthase 1 = Nitric oxide synthase 1 (Rattus norvegicus, UniProt P29476); format: tissue-based, Cerebellum; further: in other assays of this panel Not Active means under 50% inhibition at 10 µM
[11] = target: C-X-C chemokine receptor type 1 (Homo sapiens, UniProt P25024); further: in other assays of this panel Not Active means under 50% inhibition at 10 µM
[12] = target: 5-hydroxytryptamine receptor 2B (Homo sapiens, UniProt P41595); format: cell membranes, Membrane; settings: cho-k1; further: in other assays of this panel Not Active means under 50% inhibition at 10 µM
[13] = target: Cholecystokinin receptor type A (Homo sapiens, UniProt P32238); format: cell membranes, Membrane; settings: 1321-n1; further: in other assays of this panel Not Active means under 50% inhibition at 10 µM
[14] = target: Sigma non-opioid intracellular receptor 1 (Homo sapiens, UniProt Q99720); assay: DRUGMATRIX: Sigma1 radioligand binding (ligand: [3H] Haloperidol); format: cell membranes, Jurkat, Membrane; settings: Not Active = under 50% inhibition at 10 µM
[15] = target: C-C chemokine receptor type 5 (Homo sapiens, UniProt P51681); format: cell membranes, Membrane; settings: hek293; further: in other assays of this panel Not Active means under 50% inhibition at 10 µM
[16] = target: 5-hydroxytryptamine receptor 1B (Rattus norvegicus, UniProt P28564); format: cell membranes, Wistar, Cerebral cortex, Membrane; further: in other assays of this panel Not Active means under 50% inhibition at 10 µM
[17] = target: Platelet-activating factor receptor (Homo sapiens, UniProt P25105); format: tissue-based; further: in other assays of this panel Not Active means under 50% inhibition at 10 µM
Neutrophil elastase = Neutrophil elastase (Homo sapiens, UniProt P08246); format: tissue-based
[18] = target: Mitogen-activated protein kinase 3 (Homo sapiens, UniProt P27361); assay: DRUGMATRIX: Protein Serine/Threonine Kinase, ERK1 enzyme inhibition (substrate: Myelin Basic Protein); design: species or system Escherichia coli; settings: Not Active = under 50% inhibition at 10 µM
Melanocortin receptor 5 = Melanocortin receptor 5 (Homo sapiens, UniProt P33032); format: cell membranes, Membrane; settings: hek293; further: in other assays of this panel Not Active means under 50% inhibition at 10 µM
[19] = target: 5-hydroxytryptamine receptor 4 (Cavia porcellus, UniProt O70528); format: cell membranes, Dunkin-Hartley, Striatum, Membrane; further: in other assays of this panel Not Active means under 50% inhibition at 10 µM
[20] = target: Amine oxidase [flavin-containing] A (Homo sapiens, UniProt P21397); assay: DRUGMATRIX: Monoamine Oxidase MAO-A enzyme inhibition (substrate: Kynuramine); settings: bti-tn-5b1-4; Not Active = under 50% inhibition at 10 µM
Leukotriene C4 synthase = Leukotriene C4 synthase (Cavia porcellus, UniProt A6XA80); format: tissue-based, Lung

Row | Structure (SMILES) | IC50 (B2 bradykinin receptor) | IC50 (Glycine receptor) | IC50 (Substance-P receptor) | IC50 [1] | IC50 (Endothelin-1 receptor) | IC50 (Calcitonin receptor) | IC50 [2] | IC50 [3] | IC50 (Adenosine receptor A1) | IC50 [4] | IC50 [6] | IC50 (Thromboxane-A synthase) | IC50 [7] | IC50 (Cathepsin G) | IC50 (Mu-type opioid receptor) | IC50 (Interstitial collagenase) | IC50 [8] | IC50 [9] | IC50 [10] | IC50 (Nitric oxide synthase 1) | further results
1 | CC(C)(C)CC(C)(C)c1ccc(OCCOCC[N+](C)(C)Cc2ccccc2)cc1.[Cl-] [BENZETHONIUM CHLORIDE] | Not Active | Not Active | Not Active | Not Active | Not Active | Not Active | Not Active | Not Active | Not Active | Not Active | Not Active | Not Active | Not Active | Not Active | Not Active | Not Active | Not Active | Not Active | Not Active | Not Active | Ki ([5]; insect cells): Note: corresponding IC50 reported as Active; IC50 ([5]; read-out: IC50): 768 nM; IC50 [11]: Not Active; IC50 [12]: Not Active; IC50 [13]: Not Active; IC50 ([14]; jurkat): Not Active; IC50 [15]: Not Active; IC50 [16]: Not Active; IC50 [17]: Not Active; IC50 (Neutrophil elastase): Not Active; IC50 [18]: Not Active; IC50 (Melanocortin receptor 5): Not Active; IC50 [19]: Not Active; IC50 [20]: Not Active; IC50 (Leukotriene C4 synthase): Not Active
2 | CCC(C)C(C(=O)OCC[N+](C)(CC)CC)c1ccccc1.[Br-] (stereo not given) [VALETHAMATE BROMIDE] | Not Active | Not Active | Not Active | Not Active | Not Active | Not Active | Not Active | Not Active | Not Active | Not Active | Not Active | Not Active | Not Active | Not Active | Not Active | Not Active | Not Active | Not Active | Not Active | Not Active | IC50 ([5]; insect cells): Not Active; IC50 [11]: Not Active; IC50 [12]: Not Active; IC50 [13]: Not Active; Ki [14]: 200 nM; IC50 ([14]; read-out: IC50): 475 nM; IC50 [15]: Not Active; IC50 [16]: Not Active; IC50 [17]: Not Active; IC50 (Neutrophil elastase): Not Active; IC50 [18]: Not Active; IC50 (Melanocortin receptor 5): Not Active; IC50 [19]: Not Active; IC50 [20]: Not Active; IC50 (Leukotriene C4 synthase): Not Active
